{"sequences": {"note": "By UniProt entry, the sequences of proteins in these tests, tags left out.", "UniProt Q9NYA1": "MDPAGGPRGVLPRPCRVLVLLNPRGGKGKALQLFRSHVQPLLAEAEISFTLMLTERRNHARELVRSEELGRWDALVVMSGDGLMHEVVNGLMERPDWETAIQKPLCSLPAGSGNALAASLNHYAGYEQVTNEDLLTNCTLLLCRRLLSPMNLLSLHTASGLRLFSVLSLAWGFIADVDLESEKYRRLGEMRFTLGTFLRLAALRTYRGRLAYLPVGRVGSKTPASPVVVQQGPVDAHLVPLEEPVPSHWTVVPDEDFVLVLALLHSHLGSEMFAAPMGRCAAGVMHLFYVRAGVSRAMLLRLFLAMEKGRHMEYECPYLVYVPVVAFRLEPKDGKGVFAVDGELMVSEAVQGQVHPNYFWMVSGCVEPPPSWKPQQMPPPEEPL", "UniProt P16220": "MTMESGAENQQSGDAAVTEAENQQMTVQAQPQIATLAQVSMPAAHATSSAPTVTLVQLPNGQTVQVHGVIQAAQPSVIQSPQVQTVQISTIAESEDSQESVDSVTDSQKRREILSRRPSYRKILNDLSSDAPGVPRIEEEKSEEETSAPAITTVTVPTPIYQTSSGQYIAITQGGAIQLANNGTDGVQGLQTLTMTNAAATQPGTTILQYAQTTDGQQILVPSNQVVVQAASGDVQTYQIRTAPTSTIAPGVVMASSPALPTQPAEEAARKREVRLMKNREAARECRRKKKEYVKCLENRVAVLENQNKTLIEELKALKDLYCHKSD"}, "source": "paper PMC3950625", "key": {"[1]": {"biological_target": "T1, sphingosine kinase 2 (human (endogenous in HUVEC)) (UniProt Q9NRA0)", "T1 sequence": "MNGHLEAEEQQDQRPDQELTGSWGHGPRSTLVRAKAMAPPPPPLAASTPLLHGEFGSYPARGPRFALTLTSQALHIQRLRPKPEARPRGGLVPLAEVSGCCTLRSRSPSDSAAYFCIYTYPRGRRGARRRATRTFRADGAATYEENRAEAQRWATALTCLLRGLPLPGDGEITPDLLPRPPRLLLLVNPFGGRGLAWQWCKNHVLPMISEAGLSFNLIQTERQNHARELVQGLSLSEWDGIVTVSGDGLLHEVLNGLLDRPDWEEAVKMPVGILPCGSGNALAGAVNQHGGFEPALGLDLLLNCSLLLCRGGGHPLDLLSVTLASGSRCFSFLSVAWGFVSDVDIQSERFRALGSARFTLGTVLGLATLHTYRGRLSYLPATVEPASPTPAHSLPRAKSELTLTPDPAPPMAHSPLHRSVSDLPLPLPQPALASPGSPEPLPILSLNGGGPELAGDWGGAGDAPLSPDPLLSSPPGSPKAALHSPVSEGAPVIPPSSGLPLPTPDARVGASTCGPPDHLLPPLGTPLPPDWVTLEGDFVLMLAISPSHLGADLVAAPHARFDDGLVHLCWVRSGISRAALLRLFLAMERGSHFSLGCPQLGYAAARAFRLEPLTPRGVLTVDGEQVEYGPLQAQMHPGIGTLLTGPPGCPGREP", "assay": "co-IP; HUVEC lysate (500 ug total protein; 50 mM Tris-HCl, 75 mM NaCl, 75 mM KCl, 4 mM MgCl2, 1 % NP-40) incubated with 10 ug rabbit polyclonal anti-SphK-1 or anti-SphK-2 antibody and Protein A+G agarose beads; precipitates blotted for (p-)CREB, SphK-1 or SphK-2; IgG as control"}, "[2]": {"biological_target": "sphingosine kinase 1 (human (endogenous in HUVEC)) (UniProt Q9NYA1)", "assay": "co-IP; HUVEC lysate (500 ug total protein; 50 mM Tris-HCl, 75 mM NaCl, 75 mM KCl, 4 mM MgCl2, 1 % NP-40) incubated with 10 ug rabbit polyclonal anti-SphK-1 or anti-SphK-2 antibody and Protein A+G agarose beads; precipitates blotted for (p-)CREB, SphK-1 or SphK-2; IgG as control"}}, "note": "These are yes or no findings as the source states them, for the method shown. Binding seen in cells or lysates may run through a third protein. Some binding calls cover weakened binding; strength is not graded here."}
{"substance": "cAMP response element-binding (CREB) protein (from UniProt P16220 1-327)", "values": [{"measurement": "binding", "setting": "[1]", "result": "binds"}, {"measurement": "binding", "setting": "[2]", "result": "no binding"}]}
